Publication PMC7819943, “Rice protein-binding microarrays: a tool to detect cis-acting elements near promoter regions in rice”
The other results are listed elsewhere or left out.

target: T1, OsSMF1 (Oryza sativa, UniProt Q6ZLB0 1-436); assay: protein-binding microarray (RPBM); PBS, 2% BSA, 51.3 ng/ul salmon testes DNA, 50 uM zinc acetate, 200 nM TF, 25 C, 1 h; high values mean tight binding; conditions: protein: recombinant; tags: N-terminal polyhistidine and DsRed monomer fusion (pET32a); chain copies: 2; label: CyDye5-dUTP incorporated in the synthesized complementary strand; 3' TTTTT single-stranded linker to array surface; dsDNA, one strand shown
T1 sequence: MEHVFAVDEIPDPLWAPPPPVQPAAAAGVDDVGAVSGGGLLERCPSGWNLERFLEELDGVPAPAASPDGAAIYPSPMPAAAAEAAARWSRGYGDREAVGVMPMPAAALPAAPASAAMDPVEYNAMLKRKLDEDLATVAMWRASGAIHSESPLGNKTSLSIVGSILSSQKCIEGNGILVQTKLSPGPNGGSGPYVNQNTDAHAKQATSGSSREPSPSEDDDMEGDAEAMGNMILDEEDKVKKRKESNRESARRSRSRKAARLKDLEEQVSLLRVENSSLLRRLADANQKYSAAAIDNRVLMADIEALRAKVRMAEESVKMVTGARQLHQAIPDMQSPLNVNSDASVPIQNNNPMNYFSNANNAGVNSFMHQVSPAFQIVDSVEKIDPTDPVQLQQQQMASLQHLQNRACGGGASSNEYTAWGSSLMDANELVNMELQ
Summary of the method: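 The binding signal for each feature is its fluorescence intensity in arbitrary units. An Axon 4000B scanner was used to read a custom Agilent array that had been made double-stranded with Cy5-dUTP primer extension, blocked with 2% BSA, incubated at 25 °C for 1 h with 200 nM protein in PBS, 2% BSA, salmon testes DNA and 50 µM zinc acetate, and washed. The protein was an N-terminal polyhistidine–DsRed transcription factor fusion from E. coli BL21-CodonPlus, purified on Ni–NTA.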

Q: With “TGGCATTGAAGTAGCCCGCCATCGCCAGCTCGATCTCCGACGGAGTCACCTAGTGCAG” as the sequence, how does the binding signal read?
A: 3350 fluorescence intensity (a.u.)

Q: With “ATCGTGTTGCATAATTTGGCAAAGGGTGACAATGGTTCTTCGGAGTCACCTAGTGCAG” as the sequence, how does the binding signal read?
A: 4040 fluorescence intensity (a.u.)

Q: With “CAAGGGAGCTGGTAACACTCATCATTTCCGTTCTTCAAATCGGAGTCACCTAGTGCAG” as the sequence, how does the binding signal read?
A: 3250 fluorescence intensity (a.u.)

Q: “TCATTACATCCGTCACGGATGACGGATGACATATTATCCACGGAGTCACCTAGTGCAG” was tested. Which binding signal did it give?
A: 4600 fluorescence intensity (a.u.)

Q: How did the binding signal turn out when “CCATCTGTAGTATAGTATGTCTACACACACACACACACACCGGAGTCACCTAGTGCAG” was run?
A: 3720 fluorescence intensity (a.u.)

Q: “AGCGTGCAGAATCTAGTTATAGTCAGCTTGTTATGCATCCCGGAGTCACCTAGTGCAG” was tested. Which binding signal did it give?
A: 26900 fluorescence intensity (a.u.)

Q: With “TTAACTTGGAATAGCCATACAGCCTTGCCAGCAATTGCATCGGAGTCACCTAGTGCAG” as the sequence, how does the binding signal read?
A: 3950 fluorescence intensity (a.u.)

Q: How did the binding signal turn out when “CTGAGATACTCGCCATCTGATTTCCTAGGCGAGATGGCGTCGGAGTCACCTAGTGCAG” was run?
A: 21200 fluorescence intensity (a.u.)

Q: For “ACGCTCACACATGCACACTCACAACCCTATAAACACCTCTCGGAGTCACCTAGTGCAG”, which binding signal is on record?
A: 4250 fluorescence intensity (a.u.)

Q: “TTTGGTTTCTTAATTCTGAGTCCTTTCTTTCGTCACACTCCGGAGTCACCTAGTGCAG” was tested. Which binding signal did it give?
A: 3240 fluorescence intensity (a.u.)

Q: With “CCAAACTGAAAGTACTTTATGTCATATTGTCATGGGCTTACGGAGTCACCTAGTGCAG” as the sequence, how does the binding signal read?
A: 5040 fluorescence intensity (a.u.)

Q: Which binding signal does the source give for “AAGCGCAGGCACGCCACGCGTCGTCACTCGTCACGGTGCCCGGAGTCACCTAGTGCAG” here?
A: 5750 fluorescence intensity (a.u.)

Q: For “TGGATGGAATTGGGACATATTTCTACCTTTCCCTATCTTTCGGAGTCACCTAGTGCAG”, which binding signal is on record?
A: 28200 fluorescence intensity (a.u.)

Q: Which binding signal does the source give for “TTTGGGCGTAGTCATGCTGAGTAAGCATGAAAGAGTAAGCCGGAGTCACCTAGTGCAG” here?
A: 3240 fluorescence intensity (a.u.)

Q: “AAGCGATCGGGGCGGCGGAGGAGGTGGGTGGGAGGGAGGGCGGAGTCACCTAGTGCAG” was tested. Which binding signal did it give?
A: 7690 fluorescence intensity (a.u.)

Q: How did the binding signal turn out when “ATACGCTAAGCATCCTATCGCAAGTTCGAAGCACCTTTGCCGGAGTCACCTAGTGCAG” was run?
A: 3580 fluorescence intensity (a.u.)

Q: “GTGGGATGACGGGACGTGGGCTGGGGTTGGCCTGGGCTGACGGAGTCACCTAGTGCAG” was tested. Which binding signal did it give?
A: 3520 fluorescence intensity (a.u.)

Q: Which binding signal does the source give for “GGTGTGGAGGGGTTGGACCAGAGCACGACGACGGCGAGGACGGAGTCACCTAGTGCAG” here?
A: 45100 fluorescence intensity (a.u.)

Q: For “AGAAAAGAAAAGAAAAGAAATTGACGTCACCATTTGTCCCCGGAGTCACCTAGTGCAG”, which binding signal is on record?
A: 13400 fluorescence intensity (a.u.)

Q: How did the binding signal turn out when “ATTATACTATAATTACTCCATCCGTACTCGTAATGACAATCGGAGTCACCTAGTGCAG” was run?
A: 3180 fluorescence intensity (a.u.)

Q: “GGAAGAAGGGAGGTGAGGCTGACATATGGGGCCCACGTGACGGAGTCACCTAGTGCAG” was tested. Which binding signal did it give?
A: 3510 fluorescence intensity (a.u.)

Q: With “GCCAATCTCGACGTGCGCTACCGCTGCTGCACCTCCGTGCCGGAGTCACCTAGTGCAG” as the sequence, how does the binding signal read?
A: 3290 fluorescence intensity (a.u.)

Q: Which binding signal does the source give for “TTTCACGAACTAAACATGCCTTATCAGAACCGAACAAACCCGGAGTCACCTAGTGCAG” here?
A: 3330 fluorescence intensity (a.u.)

Q: How did the binding signal turn out when “GCCTGTCGTAACCCCTTGCGTGGCGCCGGTCCTCTCCGCCCGGAGTCACCTAGTGCAG” was run?
A: 5300 fluorescence intensity (a.u.)

Q: How did the binding signal turn out when “CTGCAGTTTGCCTTTAAGTCTCAGTAACTTGCTGAGTTGGCGGAGTCACCTAGTGCAG” was run?
A: 9010 fluorescence intensity (a.u.)

Q: For “GTTCGCAACTCGCCGTCTCCAAAAGATAAAGGGAAAACGGCGGAGTCACCTAGTGCAG”, which binding signal is on record?
A: 4000 fluorescence intensity (a.u.)

Q: How did the binding signal turn out when “TCTTAACACTCCTTTGAAGAGATATGTACATCAAACATAACGGAGTCACCTAGTGCAG” was run?
A: 3190 fluorescence intensity (a.u.)

Q: For “CTTGCGACCTTAGCGCTTATTGGCGCCAACAAGGTAACTTCGGAGTCACCTAGTGCAG”, which binding signal is on record?
A: 3190 fluorescence intensity (a.u.)

Q: For “ATTCATATATATGGTAATGAATCTAGACATACATGTGAGCCGGAGTCACCTAGTGCAG”, which binding signal is on record?
A: 23900 fluorescence intensity (a.u.)

Q: How did the binding signal turn out when “TTTTAGACCCAAACCCTCAAATTTTCTAAGCAAAATAGTTCGGAGTCACCTAGTGCAG” was run?
A: 26900 fluorescence intensity (a.u.)

Q: Which binding signal does the source give for “CAAAATTTGCCTAAACTTATCCCGCGGTCGCTCGTCCCTACGGAGTCACCTAGTGCAG” here?
A: 18000 fluorescence intensity (a.u.)

Q: For “AATGGAGTTTGTGGAACACATTGGCCATGAGTTTTGCAGCCGGAGTCACCTAGTGCAG”, which binding signal is on record?
A: 3210 fluorescence intensity (a.u.)

Q: For “GATGACGATGACCGGAGGGCACCACCATGACGCGCACCACCGGAGTCACCTAGTGCAG”, which binding signal is on record?
A: 35700 fluorescence intensity (a.u.)

Q: Which binding signal does the source give for “CGCCGGCACAGCGACATAGCTGACGTCGACGATGCTCACTCGGAGTCACCTAGTGCAG” here?
A: 5350 fluorescence intensity (a.u.)

Q: With “AATTATTGCTGGTGAATAATGATGGGTCATGTTTTCATGTCGGAGTCACCTAGTGCAG” as the sequence, how does the binding signal read?
A: 3400 fluorescence intensity (a.u.)

Q: With “GCAAGAGCCGAGAGGGCCACGTGGCGCGATCCCATTGGTTCGGAGTCACCTAGTGCAG” as the sequence, how does the binding signal read?
A: 12100 fluorescence intensity (a.u.)

Q: For “TGTGGTGTGTGTGTGGCTGAAACCGCGAGGCCGCCGCGAGCGGAGTCACCTAGTGCAG”, which binding signal is on record?
A: 3440 fluorescence intensity (a.u.)

Q: How did the binding signal turn out when “ATTGAATAAACGTCAGTACGTCACCAAGTACTTTGATTCGCGGAGTCACCTAGTGCAG” was run?
A: 4440 fluorescence intensity (a.u.)

Q: With “TAGGACAAAGCTAGAATGACACGTAGTAATTTGGAACGGACGGAGTCACCTAGTGCAG” as the sequence, how does the binding signal read?
A: 3200 fluorescence intensity (a.u.)

Q: “AAGGTTTGGAACATTCTGTTACCTATGAATACTGCACAGGCGGAGTCACCTAGTGCAG” was tested. Which binding signal did it give?
A: 11700 fluorescence intensity (a.u.)

Q: For “CTAGCTCCCGGTGTGTCACCGGTCTATAAGAGGCCCCTGTCGGAGTCACCTAGTGCAG”, which binding signal is on record?
A: 4560 fluorescence intensity (a.u.)

Q: For “CCGGCGTGGCCCATCCATCCGTCCGAGTCATCCCGCAAAACGGAGTCACCTAGTGCAG”, which binding signal is on record?
A: 6340 fluorescence intensity (a.u.)
